Results as given in patent US5824771A, “Cyclic CRF agonists” (The Salk Institute for Biological Studies, priority 1997, dated 1998).
At least one peptide structure holds a part that was inferred or is arguable (an end, a ring closure or a residue). Bridge positions count the residues as written; N and C are the ends. Square brackets hold non-standard residues; d marks the D form. Peptide text beside a SMILES is read from it. Nle = CCCC[C@H](N)C(=O)O

Tested on: rat anterior pituitary cells
Assay: In vitro stimulation of ACTH and β-endorphin secretion by cultured rat pituitary cells, potency compared with oCRF (Standard) or r/hCRF
Assay type: cell-based
Details: compared with the Standard or with a named analog
Method: The cyclic CRF agonists are examined for their effects on the secretion of ACTH and β-endorphin in vitro and also in vivo. […] In vivo testing is carried out using the general procedure set forth in C. Rivier et al., Science, 218, 377 (1982).

SMILES | in vitro biopotency, comparison in words
CCCC[C@H](NC(=O)[C@H](CCCCN)NC(=O)[C@H](CCCNC(=N)N)NC(=O)[C@H](CC(C)C)NC(=O)[C@H](CC(C)C)NC(=O)[C@H](CCC(=O)O)NC(=O)[C@@H](CC(C)C)NC(=O)[C@H](CO)NC(=O)[C@H](CC(C)C)NC(=O)[C@H](CC(=O)O)NC(=O)[C@@H](NC(=O)[C@H](CO)NC(=O)[C@@H](NC(=O)[C@@H]1CCCN1C(=O)[C@@H]1CCCN1C(C)=O)[C@@H](C)CC)[C@@H](C)CC)C(=O)N[C@H](C(=O)N[C@@H](CCC(=O)O)C(=O)N[C@H](C(=O)N[C@@H](CCC(=O)O)C(=O)N[C@@H](CCCCN)C(=O)N[C@@H](CCC(N)=O)C(=O)N[C@@H](CCC(=O)O)C(=O)N[C@@H](CCCCN)C(=O)N[C@@H](CCC(=O)O)C(=O)N[C@@H](CCCCN)C(=O)N[C@@H](CCC(N)=O)C(=O)N[C@H]1CCC(=O)NCCCC[C@@H](C(=O)N[C@@H](CC(N)=O)C(=O)N[C@@H](CCCNC(=N)N)C(=O)N[C@@H](CC(C)C)C(=O)N[C@@H](CC(C)C)C(=O)N[C@@H](CC(C)C)C(=O)N[C@@H](CC(=O)O)C(=O)N[C@H](C(=O)N[C@H](C(N)=O)[C@@H](C)CC)[C@@H](C)O)NC(=O)[C@@H](C)NC(=O)[C@H](C)NC1=O)[C@@H](C)CC)[C@@H](C)CC [Example 3 C D-Ala^31 cyclic peptide] (Ac-PPISIDLS[dL]ELLRK[Nle]IEIEKQEKEKQEA[dA]KNRLLLDTI-NH2; lactam 27-30) | increases biopotency compared to the Gly^31 cyclic analog
CCCC[C@H](NC(=O)[C@H](CCCCN)NC(=O)[C@H](CCCNC(=N)N)NC(=O)[C@H](CC(C)C)NC(=O)[C@H](CC(C)C)NC(=O)[C@H](CCC(=O)O)NC(=O)[C@@H](CC(C)C)NC(=O)[C@H](CO)NC(=O)[C@H](CC(C)C)NC(=O)[C@H](CC(=O)O)NC(=O)[C@@H](NC(=O)[C@H](CO)NC(C)=O)[C@@H](C)CC)C(=O)N[C@H](C(=O)N[C@@H](CCC(=O)O)C(=O)N[C@H](C(=O)N[C@@H](CCC(=O)O)C(=O)N[C@@H](CCCCN)C(=O)N[C@@H](CCC(N)=O)C(=O)N[C@@H](CCC(=O)O)C(=O)N[C@@H](CCCCN)C(=O)N[C@@H](CCC(=O)O)C(=O)N[C@@H](CCCCN)C(=O)N[C@@H](CCC(N)=O)C(=O)N[C@@H](CCC(=O)O)C(=O)N[C@@H](C)C(=O)N[C@@H](C)C(=O)N[C@@H](CCCCN)C(=O)N[C@@H](CC(N)=O)C(=O)N[C@@H](CCCNC(=N)N)C(=O)N[C@@H](CC(C)C)C(=O)N[C@@H](CC(C)C)C(=O)N[C@@H](CC(C)C)C(=O)N[C@@H](CC(=O)O)C(=O)N[C@H](C(=O)N[C@H](C(N)=O)[C@@H](C)CC)[C@@H](C)O)[C@@H](C)CC)[C@@H](C)CC [Example 16 C linear peptide] (Ac-SIDLS[dL]ELLRK[Nle]IEIEKQEKEKQEAAKNRLLLDTI-NH2) | significantly less biopotent as an agonist
